Assay results from paper PMC10791687, “The Piezo channel is a mechano-sensitive complex component in the mammalian inner ear hair cell” (Nature Communications, 2024).
Results are given in words; binding and its absence hold for the method and conditions named. Binding seen in cells or lysates may run through a third protein. Some entries that bind do so weakly or less than the wild type. For some assays here: Sequences can lack the tags named with a protein. Values belong to the substance of their own block, whether it stands above or below them.

Chains of the proteins cited; added tags and fusions are not shown. Residues count along the entry.
UniProt Q99PJ1, residues 27-1943: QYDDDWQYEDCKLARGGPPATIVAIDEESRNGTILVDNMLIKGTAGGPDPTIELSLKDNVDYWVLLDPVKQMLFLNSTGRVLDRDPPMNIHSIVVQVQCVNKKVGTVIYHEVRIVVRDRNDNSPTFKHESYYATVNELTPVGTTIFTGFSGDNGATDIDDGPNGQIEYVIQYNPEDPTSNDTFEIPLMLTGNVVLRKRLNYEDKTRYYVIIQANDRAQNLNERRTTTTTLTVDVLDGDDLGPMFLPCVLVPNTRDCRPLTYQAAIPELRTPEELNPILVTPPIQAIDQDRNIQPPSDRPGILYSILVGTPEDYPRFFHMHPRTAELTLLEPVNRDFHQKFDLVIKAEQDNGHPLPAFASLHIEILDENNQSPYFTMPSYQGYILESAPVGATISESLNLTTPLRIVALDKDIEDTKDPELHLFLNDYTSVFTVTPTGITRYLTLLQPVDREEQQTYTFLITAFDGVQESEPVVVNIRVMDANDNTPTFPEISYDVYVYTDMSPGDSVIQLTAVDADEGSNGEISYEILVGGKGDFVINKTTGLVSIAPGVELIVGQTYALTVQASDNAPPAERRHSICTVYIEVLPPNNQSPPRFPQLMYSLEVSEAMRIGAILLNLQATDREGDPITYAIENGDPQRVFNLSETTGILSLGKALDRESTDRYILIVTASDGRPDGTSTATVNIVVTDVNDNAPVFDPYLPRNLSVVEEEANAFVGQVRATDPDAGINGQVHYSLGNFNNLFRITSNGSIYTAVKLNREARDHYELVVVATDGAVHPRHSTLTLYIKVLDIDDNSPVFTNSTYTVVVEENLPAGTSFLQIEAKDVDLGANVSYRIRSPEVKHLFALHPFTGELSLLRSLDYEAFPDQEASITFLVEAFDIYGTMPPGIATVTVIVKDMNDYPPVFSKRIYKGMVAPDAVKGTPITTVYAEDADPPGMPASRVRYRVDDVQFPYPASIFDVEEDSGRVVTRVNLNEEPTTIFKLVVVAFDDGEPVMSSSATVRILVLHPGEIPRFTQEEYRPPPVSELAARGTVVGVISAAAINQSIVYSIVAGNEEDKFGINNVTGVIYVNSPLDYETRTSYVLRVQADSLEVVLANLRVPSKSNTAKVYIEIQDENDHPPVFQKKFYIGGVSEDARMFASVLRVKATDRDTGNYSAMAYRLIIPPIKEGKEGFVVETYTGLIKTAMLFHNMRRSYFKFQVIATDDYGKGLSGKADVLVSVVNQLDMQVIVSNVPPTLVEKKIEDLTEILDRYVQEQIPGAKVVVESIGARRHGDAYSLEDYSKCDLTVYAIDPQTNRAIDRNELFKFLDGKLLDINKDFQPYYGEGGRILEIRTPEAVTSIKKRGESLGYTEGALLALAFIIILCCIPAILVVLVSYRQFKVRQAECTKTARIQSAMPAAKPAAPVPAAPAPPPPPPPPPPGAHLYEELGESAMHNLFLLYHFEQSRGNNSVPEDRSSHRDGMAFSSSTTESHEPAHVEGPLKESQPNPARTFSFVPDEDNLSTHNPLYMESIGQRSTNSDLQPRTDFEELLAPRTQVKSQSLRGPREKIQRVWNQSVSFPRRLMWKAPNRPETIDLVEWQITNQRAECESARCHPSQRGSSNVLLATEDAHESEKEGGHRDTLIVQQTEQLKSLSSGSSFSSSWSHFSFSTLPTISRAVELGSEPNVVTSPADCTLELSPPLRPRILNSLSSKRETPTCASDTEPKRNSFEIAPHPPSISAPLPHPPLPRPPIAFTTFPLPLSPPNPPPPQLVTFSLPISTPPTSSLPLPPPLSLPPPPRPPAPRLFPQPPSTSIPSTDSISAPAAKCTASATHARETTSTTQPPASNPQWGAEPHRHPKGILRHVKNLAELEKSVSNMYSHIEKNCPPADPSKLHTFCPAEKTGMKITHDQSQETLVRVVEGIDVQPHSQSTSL
UniProt E2JF22: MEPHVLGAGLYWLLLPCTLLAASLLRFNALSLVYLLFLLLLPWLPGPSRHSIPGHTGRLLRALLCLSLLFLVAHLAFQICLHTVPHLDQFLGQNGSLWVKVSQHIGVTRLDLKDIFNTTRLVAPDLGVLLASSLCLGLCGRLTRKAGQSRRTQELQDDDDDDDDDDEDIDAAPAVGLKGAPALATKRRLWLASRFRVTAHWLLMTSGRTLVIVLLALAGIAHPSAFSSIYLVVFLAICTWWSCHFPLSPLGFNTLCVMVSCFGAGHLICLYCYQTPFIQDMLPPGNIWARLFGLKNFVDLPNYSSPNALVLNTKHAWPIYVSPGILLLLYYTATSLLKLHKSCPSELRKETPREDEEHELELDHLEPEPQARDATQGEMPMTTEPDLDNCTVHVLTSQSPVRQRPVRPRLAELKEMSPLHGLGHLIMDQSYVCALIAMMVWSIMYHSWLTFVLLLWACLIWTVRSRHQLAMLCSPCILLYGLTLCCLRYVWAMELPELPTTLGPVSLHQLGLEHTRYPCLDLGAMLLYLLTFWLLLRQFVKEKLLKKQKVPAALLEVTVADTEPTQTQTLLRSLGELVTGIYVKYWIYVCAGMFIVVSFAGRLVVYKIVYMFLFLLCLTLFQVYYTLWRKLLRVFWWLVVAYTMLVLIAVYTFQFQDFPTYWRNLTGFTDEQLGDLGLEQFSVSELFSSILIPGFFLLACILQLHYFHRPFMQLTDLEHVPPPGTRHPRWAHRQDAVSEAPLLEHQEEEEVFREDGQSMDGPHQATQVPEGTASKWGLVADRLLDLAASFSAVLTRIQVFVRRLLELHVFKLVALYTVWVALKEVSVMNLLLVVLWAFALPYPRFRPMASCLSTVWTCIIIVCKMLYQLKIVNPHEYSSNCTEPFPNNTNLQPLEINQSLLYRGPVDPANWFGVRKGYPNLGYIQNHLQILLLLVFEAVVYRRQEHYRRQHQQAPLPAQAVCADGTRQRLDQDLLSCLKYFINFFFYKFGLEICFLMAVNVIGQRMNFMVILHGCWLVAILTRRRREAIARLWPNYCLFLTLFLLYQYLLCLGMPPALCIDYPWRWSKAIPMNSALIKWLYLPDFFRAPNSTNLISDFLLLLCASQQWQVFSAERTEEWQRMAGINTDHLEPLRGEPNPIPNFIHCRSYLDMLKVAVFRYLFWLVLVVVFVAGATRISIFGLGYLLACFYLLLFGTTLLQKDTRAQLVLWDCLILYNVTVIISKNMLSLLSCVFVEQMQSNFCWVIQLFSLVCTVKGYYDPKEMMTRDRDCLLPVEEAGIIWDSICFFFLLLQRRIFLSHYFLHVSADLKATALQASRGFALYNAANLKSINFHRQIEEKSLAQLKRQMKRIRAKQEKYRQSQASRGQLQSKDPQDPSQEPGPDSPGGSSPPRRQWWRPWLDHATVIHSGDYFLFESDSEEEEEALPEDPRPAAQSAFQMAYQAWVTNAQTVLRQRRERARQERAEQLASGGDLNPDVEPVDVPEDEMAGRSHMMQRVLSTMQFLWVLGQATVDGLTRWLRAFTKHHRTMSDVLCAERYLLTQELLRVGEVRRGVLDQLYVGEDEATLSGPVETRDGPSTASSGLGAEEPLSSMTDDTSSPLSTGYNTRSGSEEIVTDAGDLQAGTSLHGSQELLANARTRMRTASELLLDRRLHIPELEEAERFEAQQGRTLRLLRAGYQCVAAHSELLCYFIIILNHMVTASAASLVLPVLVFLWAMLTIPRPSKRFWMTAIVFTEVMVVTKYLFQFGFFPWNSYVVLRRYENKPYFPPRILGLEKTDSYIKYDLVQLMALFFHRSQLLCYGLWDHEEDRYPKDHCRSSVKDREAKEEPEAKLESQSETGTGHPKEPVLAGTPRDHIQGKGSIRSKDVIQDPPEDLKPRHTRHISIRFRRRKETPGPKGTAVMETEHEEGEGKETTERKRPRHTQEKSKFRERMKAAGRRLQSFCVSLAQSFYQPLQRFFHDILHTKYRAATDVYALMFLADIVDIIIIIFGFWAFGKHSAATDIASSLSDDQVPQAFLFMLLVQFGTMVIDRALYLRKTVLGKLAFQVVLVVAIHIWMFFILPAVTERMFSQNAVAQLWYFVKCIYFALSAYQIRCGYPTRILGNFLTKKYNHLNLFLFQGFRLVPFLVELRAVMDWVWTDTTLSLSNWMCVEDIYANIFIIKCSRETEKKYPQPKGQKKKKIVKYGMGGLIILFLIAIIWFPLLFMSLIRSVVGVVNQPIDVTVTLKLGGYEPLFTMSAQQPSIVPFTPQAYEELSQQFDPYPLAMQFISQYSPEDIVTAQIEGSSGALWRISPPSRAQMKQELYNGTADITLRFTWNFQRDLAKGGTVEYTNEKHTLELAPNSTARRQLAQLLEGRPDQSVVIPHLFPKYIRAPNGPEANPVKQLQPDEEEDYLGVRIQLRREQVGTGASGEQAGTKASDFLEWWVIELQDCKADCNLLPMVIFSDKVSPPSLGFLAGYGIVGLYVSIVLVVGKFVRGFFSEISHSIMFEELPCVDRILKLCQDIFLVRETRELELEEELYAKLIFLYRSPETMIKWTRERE

Assays:
[1] = target: T1, mCherry-tagged mouse Tmc2 expressed in HEK 293 cells (mouse) (UniProt Q8R4P4); assay: co-IP; HEK 293 cells transiently co-transfected with Flag-mPz1 and one tagged partner; IP lysis buffer, antibody on Dynabeads Protein G, 20 min at RT; IP with anti-FLAG, anti-mCherry, anti-His, anti-Myc, anti-HA or anti-V5, Western blot with the tag antibodies
T1 sequence: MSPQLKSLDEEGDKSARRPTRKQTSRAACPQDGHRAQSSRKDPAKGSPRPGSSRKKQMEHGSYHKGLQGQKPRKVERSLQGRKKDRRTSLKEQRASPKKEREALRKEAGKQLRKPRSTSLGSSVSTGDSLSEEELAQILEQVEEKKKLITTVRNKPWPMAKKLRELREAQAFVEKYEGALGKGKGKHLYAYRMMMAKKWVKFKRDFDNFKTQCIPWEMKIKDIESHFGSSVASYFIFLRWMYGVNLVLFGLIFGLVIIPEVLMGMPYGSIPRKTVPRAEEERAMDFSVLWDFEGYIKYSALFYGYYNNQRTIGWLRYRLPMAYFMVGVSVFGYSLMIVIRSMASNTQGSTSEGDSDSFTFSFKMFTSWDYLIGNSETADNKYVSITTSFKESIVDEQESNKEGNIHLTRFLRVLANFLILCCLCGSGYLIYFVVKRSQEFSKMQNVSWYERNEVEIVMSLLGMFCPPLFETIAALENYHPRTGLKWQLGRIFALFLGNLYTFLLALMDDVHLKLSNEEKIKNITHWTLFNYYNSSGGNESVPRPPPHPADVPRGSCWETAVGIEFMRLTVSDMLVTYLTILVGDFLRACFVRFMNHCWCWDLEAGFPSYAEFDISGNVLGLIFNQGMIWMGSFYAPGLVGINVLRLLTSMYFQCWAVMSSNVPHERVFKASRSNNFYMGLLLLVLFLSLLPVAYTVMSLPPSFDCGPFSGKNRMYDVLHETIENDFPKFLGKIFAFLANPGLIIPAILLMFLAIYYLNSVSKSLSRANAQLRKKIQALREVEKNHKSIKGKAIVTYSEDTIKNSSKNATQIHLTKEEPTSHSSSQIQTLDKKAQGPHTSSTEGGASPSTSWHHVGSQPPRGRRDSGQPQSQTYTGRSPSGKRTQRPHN

[2] = target: T2, V5-tagged mouse Cib2 expressed in HEK 293 cells (mouse) (UniProt Q9Z309); assay: as above
T2 sequence: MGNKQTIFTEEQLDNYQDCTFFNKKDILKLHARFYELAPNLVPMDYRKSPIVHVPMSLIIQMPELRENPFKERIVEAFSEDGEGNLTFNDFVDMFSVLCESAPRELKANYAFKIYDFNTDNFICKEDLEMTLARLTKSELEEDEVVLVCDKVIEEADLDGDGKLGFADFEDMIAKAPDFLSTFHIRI

[3] = target: T3, mCherry-tagged mouse Tmc1 expressed in HEK 293 cells (mouse) (UniProt Q8R4P5); assay: as above
T3 sequence: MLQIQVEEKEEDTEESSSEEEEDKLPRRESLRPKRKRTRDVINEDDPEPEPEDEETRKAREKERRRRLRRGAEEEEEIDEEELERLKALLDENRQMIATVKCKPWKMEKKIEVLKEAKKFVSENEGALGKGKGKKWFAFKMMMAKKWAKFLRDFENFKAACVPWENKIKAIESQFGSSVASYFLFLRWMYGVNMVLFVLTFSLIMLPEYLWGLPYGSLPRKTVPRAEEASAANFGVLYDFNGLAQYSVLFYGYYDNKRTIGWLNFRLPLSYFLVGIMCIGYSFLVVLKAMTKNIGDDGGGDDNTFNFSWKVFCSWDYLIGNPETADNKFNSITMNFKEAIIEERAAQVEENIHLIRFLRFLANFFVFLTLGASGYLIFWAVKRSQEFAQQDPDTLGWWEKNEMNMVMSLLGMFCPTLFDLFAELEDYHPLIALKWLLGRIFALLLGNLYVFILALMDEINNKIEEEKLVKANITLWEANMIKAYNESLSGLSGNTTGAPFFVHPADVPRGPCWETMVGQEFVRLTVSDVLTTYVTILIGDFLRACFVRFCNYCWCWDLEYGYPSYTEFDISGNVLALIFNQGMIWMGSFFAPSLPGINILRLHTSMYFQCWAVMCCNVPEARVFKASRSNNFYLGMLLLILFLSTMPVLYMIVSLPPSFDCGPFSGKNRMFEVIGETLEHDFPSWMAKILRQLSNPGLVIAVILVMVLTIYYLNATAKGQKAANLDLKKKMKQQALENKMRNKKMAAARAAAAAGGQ

[4] = target: HA-tagged mouse protocadherin15 expressed in HEK 293 cells (mouse) (UniProt Q99PJ1); assay: as above
[5] = target: T4, His-tagged mouse Tmie expressed in HEK 293 cells (mouse) (UniProt Q8K467); assay: as above
T4 sequence: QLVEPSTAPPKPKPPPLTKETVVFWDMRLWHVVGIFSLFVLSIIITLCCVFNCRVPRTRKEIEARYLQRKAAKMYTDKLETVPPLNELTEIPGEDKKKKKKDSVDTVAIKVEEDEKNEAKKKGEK

[6] = target: T5, Tmc2-AcGFP fusion protein, transgenic mouse (mouse) (UniProt Q8R4P4); assay: co-IP; cochlear tissue of Tmc2-AcGFP: Pz1-tdT and Tmc1-mCherry: Pz2-GFP mice homogenized in Pierce IP lysis buffer; lysate with GFP-antibody at 4 °C overnight, Dynabeads Protein G; immunoblot with anti-tdTomato or anti-mCherry; negative controls from non-transgenic cochlear tissue
T5 sequence: T1 sequence

[7] = target: T1, mCherry-tagged mouse Tmc2 expressed in HEK 293 cells (mouse); assay: co-IP; HEK 293 cells transiently transfected with mCherry-Tmc1 or mCherry-Tmc2; endogenous Pz1 in the precipitate detected with anti-mPz1
[8] = target: T3, mCherry-tagged mouse Tmc1 expressed in HEK 293 cells (mouse); assay: as above

binding [1]: binds | binding [2]: binds | binding [3]: binds | binding [4]: binds | binding [5]: binds
Substance: FLAG-tagged mouse Piezo1 expressed in HEK 293 cells (from UniProt E2JF22 1-2547)

binding [6]: binds
Substance: Piezo1-tdTomato fusion protein (Pz1-tdT), knock-in mouse (from UniProt E2JF22 1-2547)

binding [7]: binds | binding [8]: binds
Substance: Pz1 endogenously expressed in HEK 293 cells (from UniProt Q92508 1-2521)
